Values quoted from earlier work, collected in US20050249806A1, “Combination of proton pump inhibitor, buffering agent, and nonsteroidal anti-inflammatory drug” (Santarus, Inc., priority 2004, published 2005).
Some of these results come from one statement about several compounds together.

Conditions: pharmacokinetic half-life

Row | SMILES | half-life
1 | COc1ccc2c(c1)c(CC(=O)O)c(C)n2C(=O)c1ccc(Cl)cc1 [indomethacin] | 4 to 6 h
2 | CN1C(C(=O)Nc2ccccn2)=C(O)c2ccccc2S1(=O)=O [piroxicam] | 4 to 6 h
